Percent effect of library compounds

Sequences of proteins named here, by UniProt entry; tags and fusion partners are left off.
UniProt P9WPC5, whole entry: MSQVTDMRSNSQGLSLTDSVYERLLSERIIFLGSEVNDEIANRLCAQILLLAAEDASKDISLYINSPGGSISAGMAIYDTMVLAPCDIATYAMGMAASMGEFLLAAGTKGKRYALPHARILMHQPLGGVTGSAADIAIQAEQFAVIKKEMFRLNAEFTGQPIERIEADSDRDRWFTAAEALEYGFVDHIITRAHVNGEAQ
UniProt P9WPC3, whole entry partner: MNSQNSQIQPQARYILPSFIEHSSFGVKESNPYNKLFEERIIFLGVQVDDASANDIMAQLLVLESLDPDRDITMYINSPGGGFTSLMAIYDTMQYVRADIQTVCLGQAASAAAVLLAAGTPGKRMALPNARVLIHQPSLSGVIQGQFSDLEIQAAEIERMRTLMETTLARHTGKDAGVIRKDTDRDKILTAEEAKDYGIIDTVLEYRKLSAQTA

Data taken from ChEMBL document CHEMBL3988442, “University of Dundee, Small-Polar-MMV Screening Library” (2021).

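Protease assay of ClpP1P2, read by the AMC dye that it sets free. Target: ClpP1P2, Mycobacterium tuberculosis (UniProt P9WPC5 and UniProt P9WPC3). Concentration: 50 µM. Direction is inferred from only a few compounds that gave an IC50; most scored high, so higher reads as stronger inhibition. Most other retested compounds had strongly negative values. About 69,000 compounds were tested under these conditions; 0.015% (about 10) showed 50% or more at least once.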

Each number is a percent effect as filed.
The record does not define 0% and 100%; most values in the screen are far below 50% and negative numbers occur (in some assays of this library far below -100).
This is an unselected part of the compounds tested.

Compound,effect
O=C1NCCO[C@H]2CN(C(=O)CCc3ccccc3Cl)CC[C@@H]12,12.34%
CCc1nsc(NC2CCCn3nc(COC)nc32)n1 (stereo not given),-8.715%
Cc1nc(C2CCN(c3ccccc3)CC2)no1,8.982%
Cc1nc(N(C)C)nc(N(C)CCc2ccncc2)c1C,6.866%
CN1CCOC(CN(C(=O)CN2CCCC2=O)c2nccs2)C1 (stereo not given),-10.8%
CC(C)CC(C(=O)N1CCCSCC1)N1CCCCC1=O (stereo not given),-3.34%
Cc1cccc2c(CCNC(=O)NCC[S+](C)[O-])c[nH]c12 (stereo not given),-19.05%
COC(=O)[C@H](C)NC(=O)c1nc(C2CC2)n(-c2ccccc2Cl)n1,-2.532%
CC(C)N(C)Cc1n[nH]c2c1CCN(C(=O)c1cc[nH]n1)C2,-3.675%
O=C(Nc1ccc(Cl)cn1)C1CCCN(CCc2ccncc2)C1 (stereo not given),-0.4346%
COCCOc1ncccc1C(=O)Nc1c(C)cnn1CC1CC1,-17.79%
COc1ccc(F)cc1CSCC(=O)N(C)CCC#N,1.975%
O=C(C1CC1)N1CCN(Cc2ccncc2)c2ncccc2C1,-13.55%
Cc1noc(C)c1CN1CC2(CCN(C(=O)c3cc[nH]n3)C2)CC1=O (stereo not given),-17.28%
COc1ccccc1-c1ccnc2nc(N3CCCCC3)[nH]c(=O)c12,-631%
COCCC(=O)N1CCc2c(CNc3ncccn3)cncc2C1,-5.983%
O=C(Nc1ccc(F)cc1)N(CCC(F)(F)F)C[C@H](O)CO,-0.2217%
N#Cc1ccc(CNCC2(c3ccccc3)CCOCC2)cc1,9.883%
Cc1nc(C2CCCN(C(=O)COCc3ccccc3)C2)no1 (stereo not given),-32.68%
COc1ccccc1NCC(=O)NCc1scnc1C,-1.142%
Cc1cc(Cl)ccc1NCc1ccc(C(=O)N(C)C)[nH]1,-2.603%
CNC(=O)[C@H]1C[C@H]2OCC[C@H]2N(CC2CC2)C1,-15.66%
CC(c1nc(C2CC2)no1)N1CCN(Cc2ccccc2)CC1 (stereo not given),2.212%
CC(=O)Nc1nc2c(s1)C1(CCN(C)CC1)Nc1ccccc1S2,11.1%
CCc1nc(C(=O)N2CCCC2)nn1-c1c(Cl)cccc1Cl,-23.67%
Cc1cs/c(=N\C(=O)Cn2nc(N3CCC(C)CC3)ccc2=O)[nH]1,-3.559%
CCc1nc(C2CCCN2C(=O)CCc2ccc3c(c2)OCO3)no1 (stereo not given),2.093%
CCn1ccnc1-c1nccn1-c1ccccc1CN1CCOCC1,5.839%
CCn1nccc1S(=O)(=O)N1CCC2(CCCN(C(C)C)C2=O)C1 (stereo not given),5.217%
CCN(CC)Cc1cn2c(n1)CN(C(=O)c1cc(C)on1)CC2,3.034%
OC(CNCc1nnc2ccccn12)c1ccc2c(c1)OCCCO2 (stereo not given),2.965%
COCC(C)NC(=O)CCCn1cnc2ccccc2c1=O (stereo not given),8.8%
CC(C)CC(=O)N1CCN(C(=O)N(C)C)CC2(CC(=O)N(C)C2)C1 (stereo not given),-4.654%
COc1ccccc1N1CCN(C(=O)Cn2nc(C)cc2C)CC1(C)C,6.506%
CC(=O)N(Cc1ncc(C)o1)C1CCN(CCc2cnn(C)c2)C1 (stereo not given),-15.12%
CS(=O)(=O)N1C[C@H]2CC[C@@H]1CN(Cc1ccncc1)C2,-3.233%
O=C(NCCN1CCOCC1)N1CCN(c2ccccc2)CC1,-0.4275%
CN1CCCC1c1cccc(Cc2ccc(F)cc2)n1 (stereo not given),-2.593%
CC(=O)N[C@@H]1CN(Cc2nnc(-c3ccccc3)o2)C[C@H]1C(C)C,-5.152%
O=C(O)[C@@H]1CN(C(=O)NCC2CCCCC2)C[C@H]1c1ccccn1,-5.773%
Cc1cnn(CC2CN(Cc3nnc(C4CC4)o3)CCO2)c1 (stereo not given),1.552%
CCc1c(C)nn(CCNC(=O)Cc2csc(C)n2)c1C,-22.76%
CCn1cnnc1C1CCN(C(=O)c2cnc(C3CC3)s2)CC1,-1.272%
Cc1cnn(C2CCCN(C(=O)c3c(C)oc4nc[nH]c(=O)c34)C2)c1 (stereo not given),3.336%
CCCN1CCC(Cc2nc(CN3CCN(C)CC3)no2)CC1,-12.33%
CN1CCC(CCNC(=O)N2CCN(Cc3ccon3)CC2)CC1,0.6479%
Cc1cccc(CN2CCC3(CCC(C(=O)N(C)C)O3)CC2)n1 (stereo not given),-4.08%
CCOc1ncccc1NC(=O)N1CCCN(C(=O)OC)CC1,-6.367%
CNc1nc(C(=O)N2C[C@@H]3CCN(C)[C@@H]3C2)cs1,-4.22%
N#Cc1cccc(CS(=O)(=O)NCCC(O)c2ccccc2)c1 (stereo not given),5.882%
CC(C)(C)C(=O)N1CCC(c2nc(O)cc(-c3ccncc3)n2)CC1,4.101%
CCC(=O)NCCCn1c(-c2cccnc2C)cc2cccnc21,-12.41%
CNS(=O)(=O)c1cccc(CNc2nccc(C(F)(F)F)n2)c1,14.22%
Cc1ccc(-c2nc(CN3CCn4c(nnc4C4CC4)C3)no2)cc1,0.3163%
O=C1CC2(CCCC2)CN1CCOc1ccc(F)cc1,17.21%
O=C(c1csc2nc(-c3ccc(Cl)cc3)cn12)N1CCCC(CO)C1 (stereo not given),-19.66%
Fc1ccc2c(C3=CCN(Cc4nnc(C5CCC5)o4)CC3)c[nH]c2c1,-6.655%
CC(C)N1CCC(Nc2ccn(CCC#N)n2)C1=O (stereo not given),-15.39%
Cc1cnn(CCC(=O)N2CCC(Nc3cccnn3)CC2)c1,-1.357%
CC1(c2ncc(CN(CC(=O)O)Cc3ccccc3)cn2)CCCCO1 (stereo not given),-16.91%
O=S(=O)(c1ccc(-c2cnco2)cc1)N1CCCC(O)(CO)CC1 (stereo not given),6.783%
CS(=O)(=O)CCC(=O)N1C[C@@H]2CC[C@H](C1)N(Cc1ccccn1)C2=O,-3.62%
Cc1occc1C(=O)N1CCC2(CC1)C(c1cnn(C)c1)CC(=O)N2C (stereo not given),13.63%
Cc1nn(C)c2ncnc(N3CCCC(OCc4cccnc4)C3)c12 (stereo not given),1.675%
Cn1ccc(CS(=O)(=O)Cc2cccc(F)c2)cc1=O,3.807%
CCc1c(C)sc2ncnc(N3CC[C@@H](N4CCOCC4)[C@H](O)C3)c12,-2.21%
Cc1cc(CN2CCN(C(=O)C(C(C)C)n3cncn3)CC2)no1 (stereo not given),-13.99%
CC(C)c1noc(CCC(=O)NCC2CCS(=O)(=O)C2)n1 (stereo not given),7.969%
Cc1ccccc1C(Nc1ncnc2c1CCNC2)c1ccccc1 (stereo not given),0.1718%
COc1c(CNC(c2ccccc2)c2nccn2C)c(C)nn1C (stereo not given),-11.18%
CCC(C)NS(=O)(=O)c1ccc(C(=O)N(C)C2(C#N)CCC2)cc1 (stereo not given),-10.2%
CCc1cc(=O)[nH]c2nnc(SCC(=O)OC)n12,10.94%
Cc1oc(C)c(C(=O)NCc2cccnc2N(C)C)c1C,17.06%
O=C1CCC2(CCOC2)CN1Cc1nncn1CCc1ccccc1 (stereo not given),-6.175%
CC(c1ccccc1)N(C)C(=O)CN1CCN(c2cnccn2)CC1 (stereo not given),1.008%
O=C(NC1COC2(CCN(Cc3ccccn3)CC2)C1)c1ccccn1 (stereo not given),-0.3918%
O=C(c1ccon1)N1CCN(c2ccncc2Cl)CC1,-0.8653%
CN(Cc1cccc(OC(F)(F)F)c1)C(=O)c1cnsn1,-5.876%
Cc1nn(C)c(Cl)c1C1CCCN1C(=O)c1cc[nH]n1 (stereo not given),0.09002%
CC(NC(=O)NCCOc1ccc(Cl)cc1)c1nncn1C (stereo not given),-3.017%
CCn1nc(C)c(CN(C)S(=O)(=O)c2cnn(C)c2)c1C,-30.8%
O=C(c1cccnc1-n1cncn1)N1CCC(Nc2ccccc2)CC1,-3.851%
COCC1CCN(C(=O)c2cccc(S(=O)(=O)NC3CCCC3)c2)C1 (stereo not given),6.734%
O=C(Nc1cccc(CNCc2ccsc2)c1)C1CC1,-8.647%
Cn1ccnc1CN1CCC(Cn2cc(-c3ccncc3)nn2)CC1,10.89%
Cc1ccc(C(C)NC(=O)N2CCNC(=O)CC2)cc1F (stereo not given),-23.56%
Cc1cc(NC(=O)NCc2cccnc2OC(C)C)n(C)n1,11.67%
CCCC(=O)N1CCc2c(CNS(C)(=O)=O)cncc2C1,-4.707%

10 of the entries, repeated:

| Compound | effect |
|---|---|
| `CC(c1ccccc1)N(C)C(=O)CN1CCN(c2cnccn2)CC1` (stereo not given) | 1.008% |
| `CS(=O)(=O)CCC(=O)N1C[C@@H]2CC[C@H](C1)N(Cc1ccccn1)C2=O` | -3.62% |
| `COCCC(=O)N1CCc2c(CNc3ncccn3)cncc2C1` | -5.983% |
| `COCC(C)NC(=O)CCCn1cnc2ccccc2c1=O` (stereo not given) | 8.8% |
| `COCC1CCN(C(=O)c2cccc(S(=O)(=O)NC3CCCC3)c2)C1` (stereo not given) | 6.734% |
| `CCc1nc(C(=O)N2CCCC2)nn1-c1c(Cl)cccc1Cl` | -23.67% |
| `O=C1CC2(CCCC2)CN1CCOc1ccc(F)cc1` | 17.21% |
| `O=C(NC1COC2(CCN(Cc3ccccn3)CC2)C1)c1ccccn1` (stereo not given) | -0.3918% |
| `O=S(=O)(c1ccc(-c2cnco2)cc1)N1CCCC(O)(CO)CC1` (stereo not given) | 6.783% |
| `COc1ccccc1N1CCN(C(=O)Cn2nc(C)cc2C)CC1(C)C` | 6.506% |